Data taken from US20150246945A1 (JAPANESE FOUNDATION FOR CANCER RESEARCH, published 2015).
These are yes or no findings as the source states them, for the method shown. For part of these data: Binding seen in cells or lysates may run through a third protein. Some binding calls cover weakened binding; strength is not graded here. For part of these data: Where a sequence is shown, tags or fusion partners need not be part of it.

Key:
[1] = target: T1, purified EpCAM (extracellular domain with myc and His tags at the C terminus, expressed in HEK-293T cells) (UniProt P16422); assay: pull-down of EpCAM on peptide-loaded streptavidin magnetic beads, Western blot
T1 sequence (looked up): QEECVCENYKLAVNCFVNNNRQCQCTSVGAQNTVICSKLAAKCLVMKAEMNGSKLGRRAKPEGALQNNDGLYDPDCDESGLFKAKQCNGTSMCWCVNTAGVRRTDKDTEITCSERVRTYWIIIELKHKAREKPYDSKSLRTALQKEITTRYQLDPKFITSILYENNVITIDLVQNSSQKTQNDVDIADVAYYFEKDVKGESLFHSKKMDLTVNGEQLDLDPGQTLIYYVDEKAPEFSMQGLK

[2] = target: T2, EpCAM, whole protein on cells (HT-29, MCF-7, 293T transfected with full-length EpCAM plasmid pkk196) or on exosomes isolated from HT-29 cells (UniProt P16422); assay: PKH26-labeled exosomes on peptide-loaded streptavidin beads, fluorescence intensity
T2 sequence (looked up): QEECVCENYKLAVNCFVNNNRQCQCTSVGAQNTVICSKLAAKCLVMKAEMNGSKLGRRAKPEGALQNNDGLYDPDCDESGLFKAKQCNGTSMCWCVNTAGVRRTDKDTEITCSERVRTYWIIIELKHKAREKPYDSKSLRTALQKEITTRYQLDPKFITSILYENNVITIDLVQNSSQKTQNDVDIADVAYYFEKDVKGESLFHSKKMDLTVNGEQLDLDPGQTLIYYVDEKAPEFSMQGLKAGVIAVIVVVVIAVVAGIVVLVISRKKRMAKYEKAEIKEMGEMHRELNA

[3] = target: T2, EpCAM, whole protein on cells (HT-29, MCF-7, 293T transfected with full-length EpCAM plasmid pkk196) or on exosomes isolated from HT-29 cells; assay: pull-down of HT-29 exosomes on peptide-loaded streptavidin beads, Western blot with anti-EpCAM

Measured: binding

KHLQCVRNICWS (biotinylated at the stage of synthesis (position not given)) [biotinylated Ep114 peptide (linker-free)]
binds: all assays above
